# Results from one PubChem assay

Source: PubChem BioAssay AID504749 (NCATS, 2011).

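A panel of P. falciparum strains inside erythrocytes is exposed to compounds for three days, then a DNA-binding dye reports the amount of parasite DNA.
Each compound was titrated across a series from about 0.000037 to 29 µM.
The number is the fitted AC50, the concentration giving a half-maximal change in signal; a lower value means higher potency, whether the curve shows a decrease or an increase.
Calls follow the curve class and fit quality: every row here is inconclusive, covering signal-raising curves and weak, poorly fitted, partial or highest-dose-only inhibition curves.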

Values are in µM.
All entries here are filed as inconclusive.
These entries are mostly ones the record files as inconclusive; other results of the assay are not listed here.
Potencies fitted to partial, single-point or poorly fitting curves are rough.
Some entries filed as inconclusive have a full curve.
The first word of each remark tells which way the curve ran; it can be opposite to the aim of the assay.

compound,setting,fitted potency (µM),curve
C[C@]12CCC3C(CCC4=C(Cl)C(=O)CC[C@@]43C)C1CCC2O (stereo partly specified),TAB109,14.13,"inhibitor, single point"
CC(C)(C)C(=O)Oc1ccc(S(=O)(=O)Nc2ccccc2C(=O)NCC(=O)O)cc1,ECU,2.818,"inhibitor, single point"
CC(=O)Nc1ccc(/C=N/NC(N)=S)cc1,W2,3.793,"inhibitor, partial curve, poor fit"
CC(=O)OCC(=O)[C@@]1(O)CCC2C3C[C@H](C)C4=CC(=O)C=CC4(C)C3C(O)CC21C (stereo partly specified),DIV14,19.01,"inhibitor, single point"
CC1=C(C(=O)O)N2C(=O)[C@@H](NC(=O)[C@H](N)c3ccccc3)[C@H]2SC1,parasite line B,17.78,"inhibitor, single point"
OCC1O[C@H](Oc2ccc(O)cc2)C(O)C(O)C1O (stereo partly specified),ECU,0.4467,"inhibitor, partial curve, poor fit"
OCC1O[C@H](Oc2ccc(O)cc2)C(O)C(O)C1O (stereo partly specified),P93_24,3.981,"inhibitor, single point"
COC(=O)c1ccc(O)cc1,CP266,16.94,"inhibitor, single point"
COC(=O)c1ccc(O)cc1,CP315,0.0013,activator
Cc1cc(C)cc(OCC2CNC(=O)O2)c1 (stereo unspecified),W2,0.0151,"inhibitor, full curve"
CC(C)(C)CC(C)(C)c1ccc(OCCO)cc1,TAB165,10,"inhibitor, single point"
CC(C)(C)CC(C)(C)c1ccc(OCCO)cc1,CP256,17.78,"inhibitor, single point"
CC(C)(C)CC(C)(C)c1ccc(OCCO)cc1,CP315,0.0005,activator
CC(C)(C)CC(C)(C)c1ccc(OCCO)cc1,N140,11.22,"inhibitor, partial curve"
Clc1ccc(COC(Cn2ccnc2)c2ccc(Cl)cc2Cl)cc1 (stereo unspecified),CP266,19.01,"inhibitor, partial curve, poor fit"
CCN1C(=O)N[C@@H](c2ccccc2)C1=O,ATS95,7.08,"inhibitor, single point"
Cc1cccc(C(=O)O)c1O,DIV14,0.0007,activator
N[C@@H](Cc1ccc(O)cc1)C(=O)O,DIV30,4.256,"inhibitor, partial curve, poor fit"
CCN(CC)CCNC(=O)c1cc(Br)c(N)cc1OC,W2,19.01,"inhibitor, single point"
COc1cc(C)c(/C=C/C(C)=C/C=C/C(C)=C/C(=O)O)c(C)c1C,CP297,19.01,"inhibitor, partial curve, poor fit"
COc1cc(C)c(/C=C/C(C)=C/C=C/C(C)=C/C(=O)O)c(C)c1C,CP215,19.01,"inhibitor, single point"
CC(C)(C)NCC(O)COc1ccc(NC(=O)NC2CCCCC2)cc1 (stereo unspecified),CP247,12.59,"inhibitor, single point"
CC(C)(C)NCC(O)COc1ccc(NC(=O)NC2CCCCC2)cc1 (stereo unspecified),parasite line A,15.85,"inhibitor, single point"
O=C(O)Cc1ccc(-c2ccccc2)cc1,CP335,2.031,"inhibitor, partial curve, poor fit"
Clc1ccc(Cl)cc1,parasite line B,17.78,"inhibitor, single point"
CC(C)CC1NC(=O)C(CCCN)NC(=O)C(C(C)C)NC(=O)C2CCCN2C(=O)C(Cc2ccccc2)NC(=O)C(CC(C)C)NC(=O)C(CCCN)NC(=O)C(C(C)C)NC(=O)C2CCCN2C(=O)C(Cc2ccccc2)NC1=O (stereo unspecified),DIV17,0.0000043,activator
CC(C)CC1NC(=O)C(CCCN)NC(=O)C(C(C)C)NC(=O)C2CCCN2C(=O)C(Cc2ccccc2)NC(=O)C(CC(C)C)NC(=O)C(CCCN)NC(=O)C(C(C)C)NC(=O)C2CCCN2C(=O)C(Cc2ccccc2)NC1=O (stereo unspecified),CP262,0.0015,"inhibitor, full curve, poor fit"
CC(C)CC1NC(=O)C(CCCN)NC(=O)C(C(C)C)NC(=O)C2CCCN2C(=O)C(Cc2ccccc2)NC(=O)C(CC(C)C)NC(=O)C(CCCN)NC(=O)C(C(C)C)NC(=O)C2CCCN2C(=O)C(Cc2ccccc2)NC1=O (stereo unspecified),3D7,0.0001,inhibitor
CC[C@]1(c2cccc(O)c2)CCCCN(C)C1,CP203,6.424,"inhibitor, single point"
CNC1(C)C2CCC(C2)C1(C)C (stereo unspecified),CP335,3.013,"inhibitor, single point"
CCC(C)(C)c1ccc(O)cc1,ATS95,10,"inhibitor, single point"
CCC(C)C1NC(=O)C(CCNCS(=O)(=O)O)NC(=O)C(NC(=O)C(CCNCS(=O)(=O)O)NC(=O)C(NC(=O)C(CCNCS(=O)(=O)O)NC(=O)CCCCC(C)C)C(C)O)CCNC(=O)C(C(C)O)NC(=O)C(CCNCS(=O)(=O)O)NC(=O)C(CCNCS(=O)(=O)O)NC(=O)C(C(C)CC)NC1=O (stereo unspecified),CP256,17.78,"inhibitor, single point"
CCC(C)C1NC(=O)C(CCNCS(=O)(=O)O)NC(=O)C(NC(=O)C(CCNCS(=O)(=O)O)NC(=O)C(NC(=O)C(CCNCS(=O)(=O)O)NC(=O)CCCCC(C)C)C(C)O)CCNC(=O)C(C(C)O)NC(=O)C(CCNCS(=O)(=O)O)NC(=O)C(CCNCS(=O)(=O)O)NC(=O)C(C(C)CC)NC1=O (stereo unspecified),CP260,17.78,"inhibitor, single point"
CCC(C)C1NC(=O)C(CCNCS(=O)(=O)O)NC(=O)C(NC(=O)C(CCNCS(=O)(=O)O)NC(=O)C(NC(=O)C(CCNCS(=O)(=O)O)NC(=O)CCCCC(C)C)C(C)O)CCNC(=O)C(C(C)O)NC(=O)C(CCNCS(=O)(=O)O)NC(=O)C(CCNCS(=O)(=O)O)NC(=O)C(C(C)CC)NC1=O (stereo unspecified),CP250,19.95,"inhibitor, single point"
CCC(C)C1NC(=O)C(CCNCS(=O)(=O)O)NC(=O)C(NC(=O)C(CCNCS(=O)(=O)O)NC(=O)C(NC(=O)C(CCNCS(=O)(=O)O)NC(=O)CCCCC(C)C)C(C)O)CCNC(=O)C(C(C)O)NC(=O)C(CCNCS(=O)(=O)O)NC(=O)C(CCNCS(=O)(=O)O)NC(=O)C(C(C)CC)NC1=O (stereo unspecified),CP215,19.01,"inhibitor, single point"
CCN(CC)S(=O)(=O)c1ccc(C(=O)O)cc1,CP192,19.01,"activator, partial curve, poor fit"
CCc1c2c(nc3ccc(OC(=O)N4CCC(N5CCCCC5)CC4)cc13)-c1cc3c(c(=O)n1C2)COC(=O)[C@]3(O)CC,W2,9.528,"inhibitor, single point"
CCc1c2c(nc3ccc(OC(=O)N4CCC(N5CCCCC5)CC4)cc13)-c1cc3c(c(=O)n1C2)COC(=O)[C@]3(O)CC,CP266,19.01,"inhibitor, single point"
CC(S)C(=O)NCC(=O)O (stereo unspecified),7G8,17.78,"inhibitor, single point"
Cc1onc(-c2ccccc2)c1-c1ccc(S(N)(=O)=O)cc1,parasite line B,11.22,"inhibitor, single point"

The last 4 entries again:

CCc1c2c(nc3ccc(OC(=O)N4CCC(N5CCCCC5)CC4)cc13)-c1cc3c(c(=O)n1C2)COC(=O)[C@]3(O)CC [W2] gave fitted potency 9.528 µM (inhibitor, single point).
CCc1c2c(nc3ccc(OC(=O)N4CCC(N5CCCCC5)CC4)cc13)-c1cc3c(c(=O)n1C2)COC(=O)[C@]3(O)CC [CP266] gave fitted potency 19.01 µM (inhibitor, single point).
CC(S)C(=O)NCC(=O)O (stereo unspecified) [7G8] gave fitted potency 17.78 µM (inhibitor, single point).
Cc1onc(-c2ccccc2)c1-c1ccc(S(N)(=O)=O)cc1 [parasite line B] gave fitted potency 11.22 µM (inhibitor, single point).